{"sequences": {"note": "Sequences of proteins named here, by UniProt entry; tags and fusion partners are left off. A change or cut given only in a name is not applied to a line headed by its entry.", "UniProt P18054": "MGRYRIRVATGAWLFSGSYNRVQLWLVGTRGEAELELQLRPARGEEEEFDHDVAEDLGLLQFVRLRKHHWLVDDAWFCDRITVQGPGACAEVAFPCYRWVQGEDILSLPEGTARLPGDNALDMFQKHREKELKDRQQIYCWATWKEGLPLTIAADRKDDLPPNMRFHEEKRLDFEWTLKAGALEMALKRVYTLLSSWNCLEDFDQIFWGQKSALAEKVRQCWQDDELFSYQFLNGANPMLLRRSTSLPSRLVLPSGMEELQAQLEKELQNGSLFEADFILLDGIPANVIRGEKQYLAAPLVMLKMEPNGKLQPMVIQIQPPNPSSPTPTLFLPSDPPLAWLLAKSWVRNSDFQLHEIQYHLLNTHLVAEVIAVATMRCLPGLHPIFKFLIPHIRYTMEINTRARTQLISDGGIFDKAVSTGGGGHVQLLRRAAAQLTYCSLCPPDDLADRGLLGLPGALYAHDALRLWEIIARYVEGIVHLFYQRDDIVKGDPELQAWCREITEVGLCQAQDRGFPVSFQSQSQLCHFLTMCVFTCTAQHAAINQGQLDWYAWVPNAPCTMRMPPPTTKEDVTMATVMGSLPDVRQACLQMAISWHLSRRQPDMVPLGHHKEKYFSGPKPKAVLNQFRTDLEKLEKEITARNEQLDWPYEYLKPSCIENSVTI"}, "source": "PubChem BioAssay AID1671190", "about": "(National Center for Advancing Translational Sciences (NCATS), 2021)", "note": "About 6,100 (1.1%) of roughly 580,000 compounds were called active. The inconclusive results got no clear call from the source; some entries with a clear call stand among them for comparison. The call rests on the fitted dose curve; in most records, active means well fitted inhibition curve with a large enough effect; inconclusive means small, poorly fitted or top-dose-only effect, or another doubt; inactive means no such curve, though single readings can be large or run the other way. Potencies beside an inconclusive call are fits to weak or partial responses and may not hold up. On the % scale 0 is the no-effect control and ±100 the full control effect; potency means the concentration at half of the fitted maximal effect.", "data": [{"target": "Polyunsaturated fatty acid lipoxygenase ALOX12 (Homo sapiens) (UniProt P18054)", "assay": "Primary qHTS assay for inhibitors of human arachidonate 12S-lipoxygenase (ALOX12): Round 2", "conditions": "purified 12hLO, xylenol orange hydroperoxide absorbance; activity change, negative = inhibition: at 108 µM (top of the series) unless noted", "outline": "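Hydroperoxide product was detected by ferrous iron/xylenol orange as the 573 to 405 nm absorbance ratio. Arachidonic acid at 40 uM (final) was turned over for 30 min at room temperature by 150 nM human 12hLO, pH 7.0 Hepes buffer, after 15 min compound preincubation.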", "values": [{"smiles": "Cc1cc(C(C)(C)C)cc(C)c1COC(=O)c1nn(C)c(=O)c2ccccc12", "Potency": "inactive"}, {"smiles": "CCOC(=O)c1[nH]c(C)c(/C(O)=C2\\C(=O)C(=O)N(CCN(C)C)C2c2ccco2)c1C", "note": "(stereo not drawn)", "Potency": "inconclusive: 3.98 µM [inhibitor, full curve, poor fit]"}, {"smiles": "COCC1(CNCc2ccc(F)cc2)C[C@@H](O)[C@@H](O)C1", "note": "(stereo partly drawn)", "Potency": "inconclusive: 31.6 µM [inhibitor, full curve, poor fit]"}, {"smiles": "Cc1ccc(NC(=O)Cn2c(C)cc3nc4n(c(=O)c32)CCCC4)cc1Cl", "Potency": "inconclusive: 56.2 µM [inhibitor, single point]"}, {"smiles": "CN(C)C(=O)SN(C(=O)c1ccccc1)c1ccccc1", "Potency": "inconclusive: 2.82 µM [inhibitor, full curve, poor fit]"}, {"smiles": "Cc1ccc(Nc2c(F)c(F)c(F)c(F)c2C(=O)O)c(C)c1", "Potency": "inconclusive: 7.94 µM [inhibitor, full curve, poor fit]"}, {"smiles": "CCOC(=O)c1cnc2ccc(OC)cc2c1Nc1ccc(C(C)=O)cc1", "Potency": "inconclusive: 44.7 µM [inhibitor, single point]"}, {"smiles": "O=C(CSc1ncnc2ccccc12)Nc1cccc(C(F)(F)F)c1", "Potency": "inactive"}, {"smiles": "Cc1sc2nc(CN3CCN(c4ccc(O)cc4)CC3)[nH]c(=O)c2c1C", "Potency": "inconclusive: 50.1 µM [inhibitor, partial curve, poor fit]"}, {"smiles": "CC1(C(=O)NC2CCCCC2)Cn2nc(-c3ccco3)cc2C(=O)N1c1ccccc1F", "note": "(stereo not drawn)", "Potency": "inconclusive: 31.6 µM [inhibitor, partial curve, poor fit]"}, {"smiles": "COc1ccc(C(=O)NC(=S)Nc2ccc3oc(=O)ccc3c2)cc1OC", "Potency": "inactive"}, {"smiles": "O=C(Nc1cc(S(=O)(=O)N2CCOCC2)ccc1N1CCCC1)C1CC1", "Potency": "inconclusive: 89.1 µM [inhibitor, partial curve, poor fit]"}, {"smiles": "COc1ccc2cc(-c3nc(Cl)c4c5c(sc4n3)CCCC5)c(=O)oc2c1", "Potency": "inconclusive: 63.1 µM [inhibitor, partial curve, poor fit]"}, {"smiles": "CCOC(=O)c1cc2sccc2n1CC(=O)N1CCCc2ccccc21", "Potency": "inconclusive: 2.82 µM [inhibitor, full curve, poor fit]"}, {"smiles": "CCC/C(O)=C1\\C(=O)CC(c2ccccc2)CC1=NC", "note": "(stereo not drawn)", "Potency": "inconclusive: 112 µM [inhibitor, partial curve, poor fit]"}, {"smiles": "CCOC(=O)c1c(-c2cccs2)csc1N", "Potency": "active: 44.7 µM"}, {"smiles": "CCCOc1ccc(Br)cc1C1C(C(=O)OC)=C(C)Nc2nnnn21", "note": "(stereo not drawn)", "Potency": "inconclusive: 100 µM [inhibitor, single point]"}, {"smiles": "CCN(Cc1ccccc1)C(=O)c1cc2c(OC)c(OC)c(OC)cc2[nH]1", "Potency": "inconclusive: 25.1 µM [inhibitor, single point]"}, {"smiles": "Cc1ccc(NC(=O)CSC2=Nc3ccccc3C3=NC(Cc4ccccc4)C(=O)N23)cc1C", "note": "(stereo not drawn)", "Potency": "inconclusive: 56.2 µM [inhibitor, partial curve, poor fit]"}, {"smiles": "C[C@H](CO)N1C[C@H](C)[C@H](CN(C)C(=O)Nc2ccc3c(c2)OCO3)Oc2ncc(Br)cc2C1=O", "Potency": "inconclusive: 56.2 µM [inhibitor, partial curve, poor fit]"}, {"smiles": "Cc1ccc(NC(=O)CSCc2n[nH]c(=O)[nH]2)c(Br)c1", "Potency": "inactive"}, {"smiles": "CCCCN(CCCNC(=O)c1ccc(Sc2ccc(Cl)cc2)c(NC(C)=O)c1)c1ccccc1", "Potency": "inconclusive: 112 µM [inhibitor, partial curve, poor fit]"}, {"smiles": "CCC(C(=O)Nc1ccc2[nH]ncc2c1)c1ccccc1", "note": "(stereo not drawn)", "Potency": "inconclusive: 112 µM [inhibitor, single point]"}, {"smiles": "Cc1ccc(S(=O)(=O)/N=S(/c2ccccc2)C(C)C)cc1", "note": "(stereo not drawn)", "Potency": "inconclusive: 3.55 µM [inhibitor, full curve, poor fit]"}, {"smiles": "O=C(CC1NCCNC1=O)OCC1CCCO1", "note": "(stereo not drawn)", "Potency": "inactive"}, {"smiles": "CCOCCn1nc(C)cc1C(=O)N[C@H](c1ccccn1)C1CC(O)C1", "note": "(stereo partly drawn)", "Potency": "inactive"}, {"smiles": "COC(=O)c1ccc2nc(C[C@@H]3C[C@@H](C(C)C)[C@H](CNC(=O)N4CCOCC4)C=C3C)[nH]c2c1", "Potency": "inactive"}, {"smiles": "CCOc1ccccc1NC(=O)C1C2C=CC(O2)C1C(=O)O", "note": "(stereo not drawn)", "Potency": "inconclusive: 35.5 µM [inhibitor, partial curve, poor fit]"}, {"smiles": "CCCn1nc(C(=O)Nc2nc3ccccc3s2)c2ccccc2c1=O", "Potency": "inconclusive: 89.1 µM [inhibitor, partial curve, poor fit]"}, {"smiles": "COc1ccc(C2CC(c3ccccc3)=NN2C(=O)COC(=O)c2ccc(Cl)nc2)cc1", "note": "(stereo not drawn)", "Potency": "inactive"}, {"smiles": "COCC(C)NCC(=O)NC(C)CCc1ccccc1", "note": "(stereo not drawn)", "Potency": "inconclusive: 0.631 µM [inhibitor, full curve, poor fit]"}, {"smiles": "O=C(Nc1nc2c(s1)CCCCC2)c1ccc(Cl)cc1", "Potency": "inconclusive: 44.7 µM [inhibitor, partial curve, poor fit]"}, {"smiles": "CC(=O)c1cc(NC(=O)c2ccc(C)cc2)c(=O)oc1C", "Potency": "inactive"}, {"smiles": "CC(=O)n1c2ccccc2c2nc(NC(C)C)sc21", "Potency": "inconclusive: 15.8 µM [inhibitor, partial curve, poor fit]"}, {"smiles": "C/C=C/C(=O)Nc1cccc(C2=NOC3(C2)C[C@H](C(N)=O)N(C(=O)/C=C/C)C3)c1", "note": "(stereo partly drawn)", "Potency": "inconclusive: 112 µM [inhibitor, single point]"}, {"smiles": "C[C@@H]1CCCCO[C@@H](CN(C)S(=O)(=O)c2ccc(F)cc2)[C@@H](C)CN([C@H](C)CO)C(=O)c2cc(NC(=O)c3ccccc3)ccc2O1", "Potency": "inconclusive: 70.8 µM [inhibitor, single point]"}, {"smiles": "C=CCNC(=S)Nc1cccc([N+](=O)[O-])c1", "Potency": "inconclusive: 50.1 µM [inhibitor, partial curve, poor fit]"}, {"smiles": "O=S(=O)(Nc1ccc(Br)cc1F)c1ccc(-c2cnc(C3CC3)o2)cc1", "Potency": "inconclusive: 39.8 µM [inhibitor, single point]"}, {"smiles": "O=C(Nc1ccc(F)cc1)C(CCc1ccccc1)N1CCN(Cc2c(F)cccc2Cl)CC1", "note": "(stereo not drawn)", "Potency": "inconclusive: 89.1 µM [inhibitor, partial curve, poor fit]"}, {"smiles": "Cc1nn(CC(=O)NCc2ccc(C(=O)O)cc2)c(C)c1[N+](=O)[O-]", "Potency": "inactive"}, {"smiles": "CCOC(=O)C(C(=O)OCC)C(C(=O)OCC)(C(=O)OCC)C(C(=O)OCC)C(=O)OCC", "Potency": "inactive"}, {"smiles": "COC(=O)C1=C(C)NC(=O)/C1=C\\c1cc(C)n(-c2ccccc2C)c1C", "Potency": "inconclusive: 2.82 µM [inhibitor, full curve, poor fit]"}, {"smiles": "COc1ccc(CCNc2nc(-c3ccncc3)cs2)cc1OC", "Potency": "inactive"}, {"smiles": "Cc1ccc(Cl)cc1NC(=O)Cn1c(C)nc2c(sc3cccc(F)c32)c1=O", "Potency": "inconclusive: 70.8 µM [inhibitor, partial curve, poor fit]"}, {"smiles": "COc1ccc(C(=O)Nc2nc3nc(-c4ccccc4)cc(=O)n3[nH]2)cc1", "Potency": "inactive"}, {"smiles": "CN(C)c1ccc(C(=O)N2CC[C@@H](CC(=O)O)[C@@H](CCN3CCN(c4ccccc4)CC3)C2)cc1", "Potency": "inconclusive: 31.6 µM [inhibitor, full curve, poor fit]"}, {"smiles": "Cc1ccc(S(=O)(=O)NCC(c2ccc(N(C)C)cc2)N2CCc3ccccc32)cc1C", "note": "(stereo not drawn)", "Potency": "inactive"}, {"smiles": "CCOC(=O)N1CCN(c2cc3[nH]c(=S)[nH]c3cc2F)CC1", "Potency": "inconclusive: 44.7 µM [inhibitor, partial curve, poor fit]"}, {"smiles": "Nc1nccnc1C(=O)NCC(O)c1ccc(F)cc1F", "note": "(stereo not drawn)", "Potency": "inconclusive: 50.1 µM [inhibitor, full curve, poor fit]"}, {"smiles": "COc1cc(SSc2cc(OC)cc([N+](=O)[O-])c2N)c(N)c([N+](=O)[O-])c1", "Potency": "inconclusive: 0.631 µM [inhibitor, full curve, poor fit]"}, {"smiles": "O=C(Cc1ccccc1)n1nc(-c2ccco2)nc1SCc1ccccc1", "Potency": "inconclusive: 44.7 µM [inhibitor, partial curve]"}, {"smiles": "COC(=O)COc1ccc2oc(C)c(C(=O)OC)c2c1", "activity change, negative = inhibition": "inconclusive: -34.5% [inhibitor]"}, {"smiles": "CC(=O)N1CCc2cc(CNC(=O)Nc3cc(Cl)ccc3C)ccc21", "Potency": "inconclusive: 141 µM [inhibitor, partial curve, poor fit]"}, {"smiles": "Cc1cc(C(=O)NNc2ccc(F)cc2)no1", "Potency": "inconclusive: 79.4 µM [inhibitor, partial curve, poor fit]"}, {"smiles": "Cc1ccccc1C(=O)Cn1c(=O)n(CCc2ccccc2)c(=O)c2sccc21", "Potency": "inconclusive: 70.8 µM [inhibitor, partial curve, poor fit]"}, {"smiles": "COC(=O)Cc1c(C)c2cc3c(c(C)c2oc1=O)OCN(CCc1ccccc1F)C3", "activity change, negative = inhibition": "inconclusive: -66% [inhibitor]"}, {"smiles": "O=C(CNC(=O)C1CCCCC1)Nc1cc(Cl)cc(Cl)c1", "Potency": "inconclusive: 44.7 µM [inhibitor, partial curve, poor fit]"}, {"smiles": "O=C(c1ccc(Cl)cc1)N1CCC(n2cc[nH]c2=O)CC1", "activity change, negative = inhibition": "inactive: 8.53% [at 6.33 µM]"}, {"smiles": "COc1cccc(NC(=O)C(Sc2nnc(-c3ccco3)n2N)c2ccccc2)c1", "note": "(stereo not drawn)", "Potency": "inconclusive: 17.8 µM [inhibitor, full curve]"}, {"smiles": "C=CC(=O)NC(NC(=O)C=C)c1ccccc1", "Potency": "inactive"}, {"smiles": "CN(C)c1ccc(NC(=O)CN2C(=O)c3ccccc3Sc3ccc(C(=O)N4CCCC4)cc32)cc1", "activity change, negative = inhibition": "inconclusive: -43.1% [inhibitor]"}, {"smiles": "OCCC1CN(c2nc(-c3ccccc3)nc3c2CCC3)CCN1C1CCCC1", "note": "(stereo not drawn)", "Potency": "inconclusive: 10 µM [inhibitor, full curve]"}, {"smiles": "Cc1ccc(N=C/C(C(=O)C(F)(F)F)=C(\\O)c2cccs2)cc1C", "Potency": "inconclusive: 6.31 µM [inhibitor, full curve]"}]}]}
